Screen size: about 53,000 sequences; about 3,700 (7%) were called active.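 Rule for the calls: active = gene knockdowns whose robust z-score for IL-1 alpha signal is at least 2 or at most -2, so actives lie on both sides; inactive = the rest.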 The list shows a part of the results.
Experiment: Components of the Cytosolic LPS Sensing Pathway: Gene Identification via Genome-wide siRNA Screen;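 note: robust z of the log signal after scaling to non-targeting control siRNA wells of the plate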
Details: RAW264.7 macrophages, IL-1a HTRF, actives lie on both sides, screened at 100 nM (by protocol), cells primed 5 h with Pam3CSK4 first
How it was run: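 Read-out: IL-1a HTRF on supernatant, divided by plate negative-control median ×100, log-transformed and converted to robust z-score. Cells were RAW264.7 given 100 nM siRNA, Pam3CSK4-primed 5 hours, then LipidA-transfected 24 hour.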

z-score, inactive:
GGGCUCUUUGAAGUUGGAUTT against Rpe65 -0.393, GGUGCCCGAAGUUAUGUUGTT against Ppp1r3f 0.909, CCCUAAUGAAUGGUCUCAUTT against Tmem74 -0.176, GCCUUUAGACUAAACAGCCTT against Slc7a6os -0.54, GGCGGUUCCCUCAGAAAAUTT against Pias1 -0.0759, GCCUCAGUACAAGGUAGCUTT against Slc30a3 -0.318, GGUCAAAGUCAAAGUUUUGTT against Crybg1 1.98, GGUGAAAACAAUGACUUUGTT against Zbtb44 0.256, GGGACUUAUGUCCAGGAAGTT against Agap3 -1.09, GGGUACAGUUAGAUUUUUUTT against Dut -0.9, GGUGUCCUUAAGUUUGCCCTT against Grcc10 -0.735, CCUUUCGUCAUGGUAUUAGTT against Taf3 0.414, GGAAGACAUCAAGAUGUAATT against Rp1l1 -1.28, GGGAUGGAUCAUAGGAUUCTT against Taldo1 0.192, AAGCACAAACUCACAGCCCTT against Hoxa4 0.0866, GGAAAGAAAGGAGAGGAGGTT against Tmem18 -1.1, GGAGAAAAUCAAACCAGAUTT against Ddx19b 0.823, GGAUGCAUGGCACAGCUUUTT against Olfr905 1.15, GCGAAUUUGAGUUGAGGCUTT against Bmp2 -0.116, CCAGUGGAAAUAACUUGUGTT against Fam53a 1.58, CCAUCAAACAGAUCUUAUUTT against Ube2i -0.0948, GCGACAACGAUUUUGAAAUTT against Rsu1 0.158, UUCUGUCCAUCGUGAUCAATT against Sctr -0.422, GGAUUUGGAGUAGAUCAAUTT against Tial1 0.638, GCCAAACAUUGGUGGACAUTT against H2-D1 0.835, GGAACUGAAAUUCAGUUGGTT against Azin1 0.218, CCUGCUCAAAGUAAGUUACTT against Ces5a -0.938, GGAGAGUUGAUGUUUGAUGTT against Paxip1 -0.625, GGUGAUCUUAGAUUUGAUUTT against Qsox2 -0.401, CUUUUGGUAUUGCAGAAUGTT against Olfr972 -1.92, CCAUUCCCAAUUGGUGUGATT against Olfr435 -0.893, GGGCUGCAUAUGACAAGGUTT against Dnajc17 -0.279, GGGUAAUAGACCAUUUCUUTT against Olfr124 0.255, GGAAGGCAUAUGUUUGUGUTT against Asf1a 1.4, GGAGCUGGAGUACGACUACTT against Tmem30b -0.891, CCAUAGUGGAAUCAAGGCUTT against Olfr1079 -0.318, CCAUGAGCGGAUAAGACUCTT against Zfyve1 0.108, GGAAUGUGAAGAGGGCUUUTT against Olfr1341 1.4, GUCCAUCAGCAGCUCAAUGTT against Ifna5 -0.655, CGUAUUCCCUAGUUUCAGATT against Kir3dl2 -0.753, GGAAUUCAGGAGUCUCUUUTT against Elavl4 -0.226, CGGAUAGUGAAAUCGCUCUTT against Copz1 -0.00672, GGAGAUUCGGACAAAGUGATT against Rhcg -1.31, CCCAAUAAUGAGAAGCGGCTT against Sh2d1b2 -0.071, GGAAACCAAUAACUGUUUATT against C130073F10Rik 0.501, GGCAUCGAUUACAUAAGUUTT against Oxr1 0.252, CCAAAUUAACAGGGCUUUGTT against Poglut1 0.452, GGUGGCCUUACAAAUGCCATT against Dph1 0.923, GGUGUUGUUUUACUUCUGUTT against Timp2 -0.24, GGAACAGAGCCUUUCUCAGTT against Rnf183 -0.153, GGAAGUUCAAAUUUGAAUGTT against Etaa1 -0.757, GGAGUAGUGUUGGAUAUAUTT against Mpv17l 1.73, AUGGACAGGACUUAGAUUCTT against Gm20815 0.198, CCAAAGUAAACUGGAUGUUTT against Jaml 0.484, CCGCUCCGAACCAAGAAGATT against Tulp1 -0.00342, GCCAUUAACUAUGGGACCUTT against Lck -0.0729, GGGAUACAGAUGUAUGAGUTT against Wdr54 -1.19, GGAGCGAGAAGCUUUAGAATT against Ubxn1 0.61, GCUGGUCAGAGAUUUUGAUTT against Vti1b 0.202, GGAUGAUCGGCACUAUAACTT against Otulin 1.81, GGAGAGUAUCAGCAAUGAATT against Impg2 1.02, GGCUACCAUAGGUUUUAAUTT against Serinc4 0.946

z-score, active:
GGGUAAUGGGCCAGUAUCATT against Fam229b -2.92, GGACAAAAUCACCUCACUUTT against Olfr1135 -3.29, GCCAGGAAUGCUAUUCUCGTT against Lrg1 -2.26, GGCAUGACAUGUAGAUGGCTT against Aldh3b3 2.17, GGAAGAGAAGCUGAACAAGTT against Gja1 2.53, GCUGAUUCCGUGUCCCAACTT against Gng2 3.42

From PubChem BioAssay AID1508600 (Functional Genomics Laboratory (NCATS/FGL), 2020)
